Experimental data as given in paper PMC13415957.
These are yes or no findings as the source states them, for the method shown. Binding seen in cells or lysates may run through a third protein. These calls come from enrichment with a bait or labelling near it, and not all partners need be listed.

Protein sequences, listed by entry. Tags and fused reporters are not part of them. Lines headed by an entry give the natural chain unless they say otherwise; changes in a name come on top.
UniProt A0A0U3JNE4: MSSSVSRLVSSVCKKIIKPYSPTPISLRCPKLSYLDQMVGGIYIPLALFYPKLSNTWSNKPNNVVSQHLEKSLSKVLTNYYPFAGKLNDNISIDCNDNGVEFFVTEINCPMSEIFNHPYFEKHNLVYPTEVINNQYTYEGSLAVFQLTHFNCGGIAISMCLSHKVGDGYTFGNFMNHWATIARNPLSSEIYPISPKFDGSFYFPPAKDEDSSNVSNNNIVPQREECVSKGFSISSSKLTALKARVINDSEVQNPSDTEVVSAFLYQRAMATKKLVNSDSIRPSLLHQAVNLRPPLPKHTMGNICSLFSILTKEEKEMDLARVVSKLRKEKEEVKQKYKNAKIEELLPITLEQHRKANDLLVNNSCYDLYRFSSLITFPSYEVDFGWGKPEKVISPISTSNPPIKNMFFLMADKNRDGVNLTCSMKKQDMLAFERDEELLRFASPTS

Target: FLAG-SlASAT4 (Solanum lycopersicum (tomato))
Experiment: affinity purification with mass spectrometry; HA-SlASAT1, FLAG-SlASAT4 and untagged SlASAT2 and SlASAT3 co-expressed in N. benthamiana leaves; IP with anti-FLAG magnetic beads (bait FLAG-SlASAT4), high detergent stringency; proteomics (DIA-PASEF) searched against the N. benthamiana database with SlASAT1-SlASAT4; empty vector control

“untagged SlASAT2 (from UniProt A0A0U3JNE4) (enzyme)” was tested, and the binding was “binds”.
